Read-outs that look alike come from different tables or passages of the source.
Settings: pH 6.9
[1] = HOAcOH 210 ppm, Cationic REB 2.5 ppm, Anionic Polymer 3.5 ppm
[2] = HOAcOH 210 ppm, Cationic REB 3.0 ppm, Anionic Polymer 3.0 ppm
[3] = HOAcOH 305 ppm, Cationic REB 2.0 ppm, Anionic Polymer 4.0 ppm

SMILES: O=C(O)CO [HOAcOH (inv.), hydroxyacetic (glycolic) acid]
- WSO (HOAcOH 175 ppm, Cationic REB 3.0 ppm, Anionic Polymer 3.0 ppm, 27 ppm without HOAcOH): 19 ppm
- O&G (HOAcOH 175 ppm, Cationic REB 3.0 ppm, Anionic Polymer 3.0 ppm, 34 ppm without HOAcOH): 25 ppm
- O&G [1]: 20 ppm
- WSO [1]: 13 ppm
- O&G [2]: 26 ppm
- WSO [2]: 13 ppm
- O&G [3]: 16 ppm
- WSO [3]: 9 ppm
